Experimental findings from article PMC5996148 are described below.

The other results are listed elsewhere or left out.

Test systems include GPLD1 (human); GPR108 (human); GPRC5C (human); GPSM3 (human); GPX1 (human); GSTA1 (human); GSTM3 (human); GSTZ1 (human); GTF2E1 (human); GTF2H5 (human).
Experiment in all cases: protein microarray (ProtoArray v5.0), streptavidin-Alexa Fluor 647
Common to all, as to settings: 3'-biotin; 20 mM Tris (pH 7.5), 5 mM MgCl2, 100 mM KCl, 0.1% Tween-20, A/T-rich and random oligonucleotide blockers; temperature not stated; high values mean tight binding

Take “GGGGACAGGGGTATGGGGAGGGG [G4-3 biotinylated (CtG)]”: the binding signal in the test on GPLD1 (human) was -0.316 z-score; in the test with GPR108 (human), -0.315 z-score; with GPRC5C (human), -0.318 z-score; with GPSM3 (human), -0.339 z-score; in the test on GPX1 (human), -0.319 z-score; with GSTA1 (human) it was -0.325 z-score. The binding signal with GSTM3 (human) was -0.341 z-score; in the test on GSTZ1 (human) it was -0.311 z-score; with GTF2E1 (human) it was -0.302 z-score; with GTF2H5 (human) it was -0.336 z-score.
